Measurements from patent publication US8404718B2, “Combinations of pyrazole kinase inhibitors” (Astex Therapeutics Limited, priority 2005, dated 2013).
Some results were stated once for a whole list of compounds, not compound by compound.

Chains of the proteins cited; added tags and fusions are not shown.
UniProt P06493, whole entry: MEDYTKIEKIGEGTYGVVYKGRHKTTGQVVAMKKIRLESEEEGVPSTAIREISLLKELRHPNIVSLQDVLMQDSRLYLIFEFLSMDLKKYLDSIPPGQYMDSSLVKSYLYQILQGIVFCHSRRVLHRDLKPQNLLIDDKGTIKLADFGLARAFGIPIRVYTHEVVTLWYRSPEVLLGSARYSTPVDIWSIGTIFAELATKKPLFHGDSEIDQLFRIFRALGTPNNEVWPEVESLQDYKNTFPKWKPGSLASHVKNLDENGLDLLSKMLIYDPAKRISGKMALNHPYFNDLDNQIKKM

molecular target: T1, CDK2/CyclinA (Homo sapiens, UniProt P24941); assay: Measurement of CDK2 kinase inhibitory activity (IC50), Example 248; assay type: biochemical; settings: or at least 50% inhibition of the CDK2 activity at a concentration of 10 μM
T1 construct: purchased Upstate Biotechnology
Procedure: Compounds of the invention were tested for kinase inhibitory activity using either the following protocol or the activated CDK2/cyclin A kinase protocol described in Example 250.
1.7 μl of active CDK2/CyclinA (Upstate Biotechnology, 10 U/μl) is diluted in assay buffer (25.0 μl of 10× strength assay buffer (200 mM MOPS pH 7.2, 250 mM (3-glycerophosphate, 50 mM EDTA, 150 mM MgCl2), 11.27 μl 10 mM ATP, 2.5 μl 1M DTT, 25 μl 100 mM sodium orthovanadate, 708.53 μl H2O), and 10 μl mixed with 10 μl of histone substrate mix (60 μl bovine histone H1 (Upstate Biotechnology, 5 mg/ml), 940 μl H2O, 35 μCi γ^33P-ATP) and added to 96 well plates along with 5 μl of various dilutions of the test compound in DMSO (up to 2.5%). The reaction is allowed to proceed for 5 hours before being stopped with an excess of ortho-phosphoric acid (30 μl at 2%).
(§1) γ^33P-ATP which remains unincorporated into the histone H1 is separated from phosphorylated histone H1 on a Millipore MAPH filter plate. The wells of the MAPH plate are wetted with 0.5% orthophosphoric acid, and then the results of the reaction are filtered with a Millipore vacuum filtration unit through the wells. Following filtration, the residue is washed twice with 200 μl of 0.5% orthophosphoric acid. Once the filters have dried, 25 μl of Microscint 20 scintillant is added, and then counted on a Packard Topcount for 30 seconds.

Question: For `O=C(NCc1ccccn1)c1n[nH]cc1NC(=O)c1c(F)cccc1F` [Example 89], which IC50 is on record?
Answer: < 20 µM

Question: With `O=C(NCc1ccccc1)c1n[nH]cc1NC(=O)c1c(F)cccc1F` [Example 90] as the molecule, how does the IC50 read?
Answer: < 20 µM

Question: How did the IC50 turn out when `O=C(NCc1ccccc1F)c1n[nH]cc1NC(=O)c1c(F)cccc1F` [Example 92] was run?
Answer: < 20 µM

Question: With `O=C(NCc1c(F)cccc1F)c1n[nH]cc1NC(=O)c1c(F)cccc1F` [Example 94] as the molecule, how does the IC50 read?
Answer: < 20 µM

Question: With `COc1ccccc1CNC(=O)c1n[nH]cc1NC(=O)c1c(F)cccc1F` [Example 96] as the molecule, how does the IC50 read?
Answer: < 20 µM

Question: With `CC(C)(C)OC(=O)N1CCCC(CNC(=O)c2n[nH]cc2NC(=O)c2c(F)cccc2F)C1` (stereo not shown) [Example 97] as the molecule, how does the IC50 read?
Answer: < 20 µM

Question: With `O=C(NCC1CCCNC1)c1n[nH]cc1NC(=O)c1c(F)cccc1F` (stereo not shown) [Example 98] as the molecule, how does the IC50 read?
Answer: < 20 µM

Question: How did the IC50 turn out when `Cc1nn(C)c(C)c1CNC(=O)c1n[nH]cc1NC(=O)c1c(F)cccc1F` [Example 99] was run?
Answer: < 20 µM

Question: For `O=C(NCC1CCCO1)c1n[nH]cc1NC(=O)c1c(F)cccc1F` (stereo not shown) [Example 100], which IC50 is on record?
Answer: < 20 µM

Question: Which IC50 does the source give for `Cc1cc(CNC(=O)c2n[nH]cc2NC(=O)c2c(F)cccc2F)no1` [Example 101] here?
Answer: < 20 µM

Question: `O=C(NCc1ccncc1)c1n[nH]cc1NC(=O)c1c(F)cccc1F` [Example 104] was tested. Which IC50 did it give?
Answer: < 20 µM

Question: For `O=C(Nc1ccccn1)c1n[nH]cc1NC(=O)c1c(F)cccc1F` [Example 105], which IC50 is on record?
Answer: < 20 µM

Question: `CN1CCC(Oc2ccc(F)cc2NC(=O)c2n[nH]cc2NC(=O)c2c(F)cccc2F)CC1` [Example 165, 4-(2,6-difluoro-benzoylamino)-1H-pyrazole-3-carboxylic acid[5-fluoro-2-(1-methyl-piperidin-4-yloxy)-phenyl]-amide] was tested. Which IC50 did it give?
Answer: < 20 µM

Question: With `O=C(Nc1cc(F)ccc1OCCN1CCCC1)c1n[nH]cc1NC(=O)c1c(F)cccc1F` [Example 166, 4-(2,6-Difluoro-benzoylamino)-1H-pyrazole-3-carboxylic acid[5-fluoro-2-(2-pyrrolidin-1-yl-ethoxy)-phenyl]-amide] as the molecule, how does the IC50 read?
Answer: < 20 µM

Question: `CN1CCN(c2c[nH]nc2C(=O)Nc2ccc(F)cc2)CC1` [Example 224, 4-(4-Methyl-piperazin-1-yl)-1H-pyrazole-3-carboxylic acid(4-fluoro-phenyl)-amide] was tested. Which IC50 did it give?
Answer: < 20 µM

Question: `O=C(Nc1ccc(F)cc1)c1n[nH]cc1N1CCOCC1` [Example 225, 4-Morpholin-4-yl-1H-pyrazole-3-carboxylic acid(4-fluoro-phenyl)-amide] was tested. Which IC50 did it give?
Answer: < 20 µM

Question: Which IC50 does the source give for `CNS(=O)(=O)Cc1ccc(CNC(=O)c2n[nH]cc2-c2ccc(Cl)cc2Cl)cc1` [Example 227, 4-(2,4-Dichloro-phenyl)-1H-pyrazole-3-carboxylic acid 4-methylsulphamoylmethyl-benzylamide] here?
Answer: < 20 µM

Question: With `O=C(Nc1ccccc1)c1n[nH]cc1-c1ccccc1` [Example 229, 4-phenyl-1H-pyrazole-3-carboxylic acid phenylamide] as the molecule, how does the IC50 read?
Answer: < 20 µM

Question: How did the IC50 turn out when `COc1ccc(NC(=O)c2n[nH]cc2-c2ccccc2)cn1` [Example 231, 4-Phenyl-1H-pyrazole-3-carboxylic acid(6-methoxy-pyridin-3-yl) amide] was run?
Answer: < 20 µM

Question: How did the IC50 turn out when `CN1CCN(c2ccc(CNC(=O)c3n[nH]cc3-c3cccc(O)c3)cc2)CC1` [Example 233, 4-(3-Hydroxy-phenyl)-1H-pyrazole-3-carboxylic acid 4-(4-methyl-piperazin-1-yl)-benzylamide] was run?
Answer: < 20 µM

Question: With `Cc1nc[nH]c1-c1c[nH]nc1C(=O)Nc1ccc(F)cc1` [Example 234, 4-(5-Methyl-3H-imidazol-4-yl)-1H-pyrazole-3-carboxylic acid(4-fluoro-phenyl)-amide] as the molecule, how does the IC50 read?
Answer: < 20 µM

molecular target: T2, CDK1/CyclinB (Homo sapiens, UniProt P06493); assay: CDK1/CyclinB assay; assay type: biochemical; settings: Example 250B protocol or selectivity protocol
T2 construct: purchased Upstate Discovery
Procedure: (specific activity approx 500 cpm/pmol, concentration as required).
The reaction is allowed to proceed for 2 to 4 hours before being stopped with an excess of ortho-phosphoric acid (5 μl at 2%).
as §1, with “20” for “25”

Question: `CC(=O)Nc1c[nH]nc1C(=O)Nc1ccc(F)cc1` [Example 2, 4-Acetylamino-1H-pyrazole-3-carboxylic acid (4-fluoro-phenyl)-amide] was tested. Which IC50 did it give?
Answer: < 20 µM

Question: With `Cc1sccc1C(=O)Nc1c[nH]nc1C(=O)Nc1ccc(F)cc1` [Example 48, 4-[(2-Methyl-thiophene-3-carbonyl)-amino]-1H-pyrazole-3-carboxylic acid (4-fluoro-phenyl)-amide] as the molecule, how does the IC50 read?
Answer: < 20 µM

Question: Which IC50 does the source give for `CN1CCC(NC(=O)c2n[nH]cc2NC(=O)c2c(F)cccc2F)CC1` [Example 53, 4-(2,6-Difluoro-benzoylamino)-1H-pyrazole-3-carboxylic acid (1-methyl-piperidin-4-yl)-amide] here?
Answer: < 20 µM

Question: `O=C(NC1CCOCC1)c1n[nH]cc1NC(=O)c1c(F)cccc1F` [Example 66] was tested. Which IC50 did it give?
Answer: < 20 µM

Question: For `O=C(Nc1cccc(CO)c1)c1n[nH]cc1NC(=O)c1c(F)cccc1F` [Example 73], which IC50 is on record?
Answer: < 20 µM

Question: Which IC50 does the source give for `CC(C)(C)C1CCC(NC(=O)c2c[nH]nc2NC(=O)c2c(F)cccc2F)CC1` (stereo not shown) [Example 77] here?
Answer: < 20 µM

Question: For `CC(C)N1CCC(NC(=O)c2n[nH]cc2NC(=O)c2c(F)cccc2F)CC1` [Example 106], which IC50 is on record?
Answer: < 20 µM

Question: `CN1CCN([C@H]2CC[C@H](NC(=O)c3n[nH]cc3NC(=O)c3c(F)cccc3F)CC2)CC1` [Example 117] was tested. Which IC50 did it give?
Answer: < 20 µM

Question: With `COc1cccc(F)c1C(=O)Nc1c[nH]nc1C(=O)NC1CCC(C(C)(C)C)CC1` (stereo not shown) [Example 123] as the molecule, how does the IC50 read?
Answer: < 20 µM

Question: `COCCN1CCC(NC(=O)c2n[nH]cc2NC(=O)c2c(F)cccc2F)CC1` [Example 125] was tested. Which IC50 did it give?
Answer: < 20 µM

Question: How did the IC50 turn out when `O=C(NC1CCN(CC2CCOC2)CC1)c1n[nH]cc1NC(=O)c1c(F)cccc1F` (stereo not shown) [Example 133] was run?
Answer: < 20 µM

Question: How did the IC50 turn out when `CO[C@H]1CC[C@H](NC(=O)c2n[nH]cc2NC(=O)c2c(F)cccc2F)CC1` [Example 137] was run?
Answer: < 20 µM

Question: `COc1cccc(F)c1C(=O)Nc1c[nH]nc1C(=O)NC1CCNCC1` [Example 142] was tested. Which IC50 did it give?
Answer: < 20 µM

Question: With `COc1cccc(F)c1C(=O)Nc1c[nH]nc1C(=O)N[C@H]1CC[C@H](O)CC1` [Example 154] as the molecule, how does the IC50 read?
Answer: < 20 µM

Question: Which IC50 does the source give for `O=C(N[C@H]1CC[C@H](N2CCOCC2)CC1)c1n[nH]cc1NC(=O)c1c(F)cccc1F` [Example 167] here?
Answer: < 20 µM

Question: For `CN1CCC(NC(=O)c2n[nH]cc2NC(=O)c2c(F)cccc2Cl)CC1` [Example 186], which IC50 is on record?
Answer: < 20 µM

Question: With `CN1CCC(NC(=O)c2n[nH]cc2NC(=O)c2c(Cl)cccc2Cl)CC1` [Example 187] as the molecule, how does the IC50 read?
Answer: < 20 µM

Question: How did the IC50 turn out when `Cc1ccc(C(=O)Nc2c[nH]nc2C(=O)NC2CCN(C)CC2)cc1` [Example 189] was run?
Answer: < 20 µM

Question: For `COc1ccccc1C(=O)Nc1c[nH]nc1C(=O)NC1CCNCC1` [Example 190], which IC50 is on record?
Answer: < 20 µM

Question: Which IC50 does the source give for `O=C(NC1CCNCC1)c1n[nH]cc1NC(=O)c1cnn2ccccc12` [Example 193] here?
Answer: < 20 µM

Question: How did the IC50 turn out when `O=C(NC1CCNCC1)c1n[nH]cc1NC(=O)c1c(Cl)cncc1Cl` [Example 194] was run?
Answer: < 20 µM

Question: For `O=C(Nc1c[nH]nc1C(=O)NC1CCNCC1)c1ccccc1OC(F)(F)F` [Example 196], which IC50 is on record?
Answer: < 20 µM

Question: How did the IC50 turn out when `O=C(Nc1c[nH]nc1C(=O)NC1CCNCC1)c1ccccc1N1CCOCC1` [Example 199] was run?
Answer: < 20 µM

Question: For `COc1cccc(F)c1C(=O)Nc1c[nH]nc1C(=O)NC1CCN(C)CC1` [Example 202], which IC50 is on record?
Answer: < 20 µM

Question: With `CN1CCC(NC(=O)c2n[nH]cc2NC(=O)c2ccccc2OC(C)(C)C)CC1` [Example 203] as the molecule, how does the IC50 read?
Answer: < 20 µM

Question: Which IC50 does the source give for `COc1ccc(F)cc1C(=O)Nc1c[nH]nc1C(=O)NC1CCN(C)CC1` [Example 204] here?
Answer: < 20 µM

Question: Which IC50 does the source give for `CN1CCN(NC(=O)c2n[nH]cc2NC(=O)c2c(Cl)cccc2Cl)CC1` [Example 207] here?
Answer: < 20 µM

Question: How did the IC50 turn out when `O=C(N[C@H]1CCCNC1)c1n[nH]cc1NC(=O)c1c(Cl)cccc1Cl` [Example 208] was run?
Answer: < 20 µM

Question: Which IC50 does the source give for `COCCN1CCC(NC(=O)c2n[nH]cc2NC(=O)c2c(Cl)cccc2Cl)CC1` [Example 209] here?
Answer: < 20 µM

Question: For `CO[C@H]1CC[C@H](NC(=O)c2n[nH]cc2NC(=O)c2c(Cl)cccc2Cl)CC1` [Example 210], which IC50 is on record?
Answer: < 20 µM

Question: Which IC50 does the source give for `CN1CCC(NC(=O)c2n[nH]cc2NC(=O)c2ccccc2Cl)CC1` [Example 211] here?
Answer: < 20 µM

Question: `CN1CCC(NC(=O)c2n[nH]cc2NC(=O)c2cc(Cl)ccc2Cl)CC1` [Example 212] was tested. Which IC50 did it give?
Answer: < 20 µM

Question: `CN1CCC(NC(=O)c2n[nH]cc2NC(=O)c2cccc(Cl)c2Cl)CC1` [Example 213] was tested. Which IC50 did it give?
Answer: < 20 µM

Question: Which IC50 does the source give for `CN1CCN(c2cc(F)cc(C(=O)Nc3c[nH]nc3C(=O)NC3CCCCC3)c2)CC1` [Example 215] here?
Answer: < 20 µM

Question: For `O=C(Nc1cccnc1)c1n[nH]cc1NC(=O)c1c(Cl)cccc1Cl` [Example 218], which IC50 is on record?
Answer: < 20 µM

Question: `O=C(NC1CCN(CC2CCOC2)CC1)c1n[nH]cc1NC(=O)c1c(Cl)cccc1Cl` (stereo not shown) [Example 219] was tested. Which IC50 did it give?
Answer: < 20 µM

Question: `O=C(Nc1ccncc1)c1n[nH]cc1NC(=O)c1c(Cl)cccc1Cl` [Example 220] was tested. Which IC50 did it give?
Answer: < 20 µM

Question: For `O=C(NC1CCN(C2CCOCC2)CC1)c1n[nH]cc1NC(=O)c1c(F)cccc1F` [Example 221], which IC50 is on record?
Answer: < 20 µM

Question: Which IC50 does the source give for `COc1cccc(F)c1C(=O)Nc1c[nH]nc1C(=O)Nc1cccnc1` [Example 222] here?
Answer: < 20 µM

Question: `O=C(Nc1cccnc1)c1n[nH]cc1NC(=O)c1c(F)cccc1F` [Example 223] was tested. Which IC50 did it give?
Answer: < 20 µM
